From patent publication US11230581B2, “Peptides and combination of peptides for use in immunotherapy against ovarian cancer and other cancers” (Immatics Biotechnologies GmbH, priority 2015, dated 2022)

System: additional tumor types
Experiment: LC-MS detection and over-presentation of the peptides on additional tumor types, cell lines and primary cultures
Parameters: species or system human
Conditions: for Other relevant organs/ cancerous diseases: Table 4A: additional tumor types on which the peptide was found, over-presented on more than 5% of measured tumor samples, or presented on more than 5% with ratio of geometric means tumor vs normal tissues larger than 3; for Additional organs/cancerous diseases: additional tumor types with over-presentation on more than 5% of the measured tumor samples, or presentation on more than 5% with ratio of geometric means tumor vs normal tissues larger than 3

| Substance | Other relevant organs/ cancerous diseases | Additional organs/cancerous diseases |
| --- | --- | --- |
| 309 (GLFDGVPTTA; listed as Homo sapiens) [compound 309] | HCC, Leukemia, BrCa, Melanoma | SCLC, Urinary Bladder Cancer, Gallbladder Cancer and Bile Duct Cancer, HNSCC |
| 310 (FLVDTPLARA; listed as Homo sapiens) [compound 310] | Urinary bladder Cancer | Gallbladder Cancer and Bile Duct Cancer, HNSCC |
| 312 (IISDLTIAL; listed as Homo sapiens) [compound 312] | SCLC, PC | NSCLC, CRC, BRCA, Melanoma, Esophageal Cancer, Uterine Cancer, Gallbladder Cancer and Bile Duct Cancer, NHL, HNSCC |
| 313 (VLFDDELLMV; listed as Homo sapiens) [compound 313] | NSCLC, RCC, Brain Cancer, HCC, Esophageal Cancer |  |
| 314 (ALIAEGIALV; listed as Homo sapiens) [compound 314] | SCLC, Melanoma | Uterine Cancer |
| 316 (ILLERLWYV; listed as Homo sapiens) [compound 316] | Melanoma |  |
| 317 (SLAALVVHV; listed as Homo sapiens) [compound 317] | Esophageal Cancer, Urinary bladder Cancer | NSCLC, Gallbladder Cancer and Bile Duct Cancer, HNSCC |
| 324 (FLYDEIEAEV; listed as Homo sapiens) [compound 324] | Leukemia | CLL |
| 326 (FLPEALDFV; listed as Homo sapiens) [compound 326] |  | CLL, AML, NHL |
| 329 (FLVTLNNVEV; listed as Homo sapiens) [compound 329] | Melanoma |  |
| 330 (QLALKVEGV; listed as Homo sapiens) [compound 330] | Esophageal Cancer | CLL, Urinary Bladder Cancer, AML, NHL, HNSCC |
| 335 (YSLSSVVTV; listed as Homo sapiens) [compound 335] | NSCLC, GC, PC, BrCa, Gallbladder Cancer, Bile Duct Cancer | HNSCC |
| 336 (ILLTAIVQV; listed as Homo sapiens) [compound 336] | BrCa, Esophageal Cancer | Melanoma |
| 337 (HLLSELEAAPYL; listed as Homo sapiens) [compound 337] |  | CLL |
| 340 (ALLSMTFPL; listed as Homo sapiens) [compound 340] | Brain Cancer, HCC, BrCa | SCLC, AML |
| 344 (YLQDQHLLLTV; listed as Homo sapiens) [compound 344] | SCLC, Melanoma |  |
| 347 (SLFKHDPAAWEA; listed as Homo sapiens) [compound 347] | NSCLC, HCC, Esophageal Cancer, Urinary bladder Cancer | Uterine Cancer, HNSCC |
| 349 (SLTEYLQNV; listed as Homo sapiens) [compound 349] | Colon, Rectum, HCC |  |
| 350 (ALLDVTHSELTV; listed as Homo sapiens) [compound 350] |  | BRCA, HNSCC |

| Substance | Other relevant organs/ cancerous diseases | Additional organs/cancerous diseases |
| --- | --- | --- |
| 354 (LILEGVDTV; listed as Homo sapiens) [compound 354] | Esophageal Cancer | BRCA, Urinary Bladder Cancer, Uterine Cancer, NHL |
| 355 (SIQQSIERLLV; listed as Homo sapiens) [compound 355] | NSCLC, CRC, HCC, Leukemia, Melanoma, Esophageal Cancer |  |
| 361 (ALYELEGTTV; listed as Homo sapiens) [compound 361] | Esophageal Cancer | NSCLC, SCLC, CLL, BRCA, Urinary Bladder Cancer, Uterine Cancer, Gallbladder Cancer and Bile Duct Cancer, HNSCC |
| 362 (TLYGLSVLL; listed as Homo sapiens) [compound 362] | BrCa | AML |
| 364 (LLQNEQFEL; listed as Homo sapiens) [compound 364] | RCC | Urinary Bladder Cancer, Uterine Cancer, Gallbladder Cancer and Bile Duct Cancer |
| 365 (YVIDQGETDVYV; listed as Homo sapiens) [compound 365] | Leukemia, Melanoma | CLL, Urinary Bladder Cancer, NHL |
| 366 (RLLDMGETDLML; listed as Homo sapiens) [compound 366] | SCLC, Leukemia, Melanoma | CLL, Urinary Bladder Cancer, AML, NHL |
| 367 (SLQNHNHQL; listed as Homo sapiens) [compound 367] | HCC, Urinary bladder Cancer | NSCLC, CRC, Melanoma, Esophageal Cancer, AML, NHL, HNSCC |
| 369 (GLFPEHLIDV; listed as Homo sapiens) [compound 369] | HCC |  |
| 374 (FLLQQHLISA; listed as Homo sapiens) [compound 374] | Leukemia | CLL |
| 376 (AMFESSQNVLL; listed as Homo sapiens) [compound 376] | Colon, Rectum | CLL |
| 378 (ALGYFVPYV; listed as Homo sapiens) [compound 378] | HCC |  |
| 380 (TLIEDEIATI; listed as Homo sapiens) [compound 380] |  | SCLC, Melanoma, Uterine Cancer, Gallbladder Cancer and Bile Duct Cancer, AML, HNSCC |
| 381 (FIDEAYVEV; listed as Homo sapiens) [compound 381] | Leukemia | GC, CLL, Melanoma, NHL |
| 383 (ALLELENSVTL; listed as Homo sapiens) [compound 383] | HCC |  |
| 387 (ALFQATAEV; listed as Homo sapiens) [compound 387] | HCC, Esophageal Cancer | SCLC, Melanoma, Urinary Bladder Cancer, Uterine Cancer, Gallbladder Cancer and Bile Duct Cancer, AML, NHL, HNSCC |
| 388 (SLTIDGIRYV; listed as Homo sapiens) [compound 388] | SCLC, Melanoma | Brain Cancer |
| 389 (LLADVTHLL; listed as Homo sapiens) [compound 389] | Brain Cancer, Endometrium | Melanoma, AML |
| 391 (YVYPQRLNFV; listed as Homo sapiens) [compound 391] | Leukemia, Melanoma |  |

| Substance | Other relevant organs/ cancerous diseases | Additional organs/cancerous diseases |
| --- | --- | --- |
| 393 (GLLDTQTSQVLTA; listed as Homo sapiens) [compound 393] | HCC, BrCa, Esophageal Cancer, Urinary bladder Cancer | CRC, Gallbladder Cancer and Bile Duct Cancer, HNSCC |
| 400 (SLLTEQDLWTV; listed as Homo sapiens) [compound 400] | Leukemia | CLL |
| 405 (ALYDVFLEV; listed as Homo sapiens) [compound 405] | PC, Esophageal Cancer |  |
| 407 (YLMDLINFL; listed as Homo sapiens) [compound 407] | PC, Prostate | AML |
| 409 (LLDAMNYHL; listed as Homo sapiens) [compound 409] | HCC, Leukemia | CLL, NHL |
| 412 (YLDDLNEGVYI; listed as Homo sapiens) [compound 412] | Leukemia, Melanoma | BRCA |
| 416 (VLSDIIQNLSV; listed as Homo sapiens) [compound 416] |  | CLL, NHL |
| 417 (NLQDTEYNL; listed as Homo sapiens) [compound 417] |  | CLL, AML, NHL |
| 422 (FLPKLLLLA; listed as Homo sapiens) [compound 422] | BrCa | Melanoma |
| 445 (GLYQDPVTL; listed as Homo sapiens) [compound 445] |  | Uterine Cancer, AML |
| 449 (KLAEGLDIQL; listed as Homo sapiens) [compound 449] | SCLC, Colon, Rectum |  |
| 452 (ILLEHGADPNL; listed as Homo sapiens) [compound 452] | HCC, Leukemia, Melanoma | CLL, Urinary Bladder Cancer, NHL |
| 453 (KLLEATSAV; listed as Homo sapiens) [compound 453] |  | SCLC, BRCA, Uterine Cancer, Gallbladder Cancer and Bile Duct Cancer, AML, NHL, HNSCC |
| 467 (FLAKDFNFL; listed as Homo sapiens) [compound 467] |  | NSCLC, Melanoma, Urinary Bladder Cancer, Gallbladder Cancer and Bile Duct Cancer, NHL, HNSCC |
| 469 (YLASDEITTV; listed as Homo sapiens) [compound 469] |  | CLL |
| 485 (NVPDSFNEV; listed as Homo sapiens) [compound 485] | Stomach |  |
| 493 (GLLGEKTQDLIGV; listed as Homo sapiens) [compound 493] | NSCLC, SCLC | CLL, Melanoma, Urinary Bladder Cancer, Uterine Cancer, Gallbladder Cancer and Bile Duct Cancer, HNSCC |
| 524 (ALIENLTHQI; listed as Homo sapiens) [compound 524] |  | CLL, Melanoma, NHL |
